PubChem BioAssay AID1259282 – Sanger Institute | 2017

Test: 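Kinase knock-downs that work with targeted colorectal cancer drugs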 (primary screen)
Cell system: DIFI human colorectal cancer cell line
Reagents: siRNA pool against human genes
Conditions: anchor drug at a mild dose (BYL719 1 µM, cetuximab 5 µg/ml, trametinib 10 nM) or DMSO vehicle; exposure time not given
Measured: 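Robust z-score and replicate-mean viability versus non-targeting pool without drug, plus a synergy score for each low-dose anchor drug (BYL719, cetuximab, trametinib)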
Reading the numbers: robust z-score, knock-down alone: higher = more viable cells than typical knock-down; viability, knock-down alone: higher = more viable cells
Units: viability, knock-down alone in fraction of control
Rule for the call: 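a knock-down is called essential if its DMSO robust z-score is under -3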
Calls: active = essential (knock-down alone, z below -3); inactive = not essential
The whole screen tested 794 reagents; this is a part drawn at random. 11 of all reagents (1.4%) were called active. 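Calls flag knock-downs that lower viability without drug; drug synergy appears only in the synergy scores; exposure time not stated.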 Entries without a mark were called inactive. Viability is capped at 1. Not all columns of the deposit are shown. The record does not give: the amount of reagent, the time to read-out.

MAP2K6 (mitogen-activated protein kinase kinase 6)
- robust z-score, knock-down alone: 0.669
- viability, knock-down alone: 0.993

DGKG (diacylglycerol kinase gamma)
- robust z-score, knock-down alone: -0.369
- viability, knock-down alone: 0.843

FBXW7 (F-box and WD repeat domain containing 7)
- robust z-score, knock-down alone: 0.715
- viability, knock-down alone: 1

ITPK1 (inositol-tetrakisphosphate 1-kinase)
- robust z-score, knock-down alone: 0.679
- viability, knock-down alone: 0.995

SRC (SRC proto-oncogene, non-receptor tyrosine kinase)
- robust z-score, knock-down alone: 0.715
- viability, knock-down alone: 1

PANK4 (pantothenate kinase 4 (inactive))
- robust z-score, knock-down alone: -0.695
- viability, knock-down alone: 0.795

MAPK9 (mitogen-activated protein kinase 9)
- robust z-score, knock-down alone: 0.715
- viability, knock-down alone: 1

PTK7 (protein tyrosine kinase 7 (inactive))
- robust z-score, knock-down alone: -2.47
- viability, knock-down alone: 0.537

N4BP2 (NEDD4 binding protein 2)
- robust z-score, knock-down alone: 0.715
- viability, knock-down alone: 1

PTK6 (protein tyrosine kinase 6)
- robust z-score, knock-down alone: 0.715
- viability, knock-down alone: 1

AK5 (adenylate kinase 5)
- robust z-score, knock-down alone: 0.715
- viability, knock-down alone: 1

TCF12 (transcription factor 12)
- robust z-score, knock-down alone: 0.224
- viability, knock-down alone: 0.929

CDKL4 (cyclin dependent kinase like 4)
- robust z-score, knock-down alone: -3.34 (active)
- viability, knock-down alone: 0.411

CDK2 (cyclin dependent kinase 2)
- robust z-score, knock-down alone: 0.715
- viability, knock-down alone: 1

NEK10 (NIMA related kinase 10)
- robust z-score, knock-down alone: 0.715
- viability, knock-down alone: 1

SBK1 (SH3 domain binding kinase 1)
- robust z-score, knock-down alone: 0.715
- viability, knock-down alone: 1

ACVR2B (activin A receptor type 2B)
- robust z-score, knock-down alone: 0.715
- viability, knock-down alone: 1

PRAG1 (PEAK1 related, kinase-activating pseudokinase 1)
- robust z-score, knock-down alone: -1.98
- viability, knock-down alone: 0.608

NUAK2 (NUAK family kinase 2)
- robust z-score, knock-down alone: -2.52
- viability, knock-down alone: 0.53

RIPK1 (receptor interacting serine/threonine kinase 1)
- robust z-score, knock-down alone: 0.715
- viability, knock-down alone: 1

MAP3K7 (mitogen-activated protein kinase kinase kinase 7)
- robust z-score, knock-down alone: -0.704
- viability, knock-down alone: 0.794

CDKN2C (cyclin dependent kinase inhibitor 2C)
- robust z-score, knock-down alone: -1.38
- viability, knock-down alone: 0.696

PIK3CG
- robust z-score, knock-down alone: 0.675
- viability, knock-down alone: 0.994

LCK (LCK proto-oncogene, Src family tyrosine kinase)
- robust z-score, knock-down alone: 0.715
- viability, knock-down alone: 1

IGF2R (insulin like growth factor 2 receptor)
- robust z-score, knock-down alone: 0.715
- viability, knock-down alone: 1

SNRK (SNF related kinase)
- robust z-score, knock-down alone: -0.967
- viability, knock-down alone: 0.756

GTF2H1 (general transcription factor IIH subunit 1)
- robust z-score, knock-down alone: -1.77
- viability, knock-down alone: 0.639

FXN (frataxin)
- robust z-score, knock-down alone: 0.715
- viability, knock-down alone: 1
